Results are given in words; binding and its absence hold for the method and conditions named. In cells and extracts the contact can be indirect. Some entries that bind do so weakly or less than the wild type. Where a sequence is shown, tags or fusion partners need not be part of it.
Tests used:
[1] = biological target: T1, activin B precursor, high molecular weight form of 48-55 kDa (from the activin betaB-myc construct) (human) (UniProt P09529); assay: co-immunoprecipitation from lysates of co-transfected 293 cells, Western blot
T1 sequence: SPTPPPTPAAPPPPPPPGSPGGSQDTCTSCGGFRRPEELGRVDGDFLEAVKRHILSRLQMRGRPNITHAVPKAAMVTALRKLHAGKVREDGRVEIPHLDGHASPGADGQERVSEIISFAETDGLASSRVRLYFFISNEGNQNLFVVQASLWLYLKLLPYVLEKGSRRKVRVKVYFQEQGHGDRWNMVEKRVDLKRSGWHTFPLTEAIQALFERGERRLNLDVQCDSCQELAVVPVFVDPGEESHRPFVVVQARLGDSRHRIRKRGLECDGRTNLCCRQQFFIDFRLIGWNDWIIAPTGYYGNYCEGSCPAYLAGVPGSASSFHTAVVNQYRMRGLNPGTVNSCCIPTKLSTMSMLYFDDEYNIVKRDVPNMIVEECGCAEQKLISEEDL

[2] = biological target: T1, activin B precursor, high molecular weight form of 48-55 kDa (from the activin betaB-myc construct) (human); assay: co-immunoprecipitation from culture media of co-transfected 293 cells, Western blot
[3] = biological target: T2, activin B, secreted low molecular weight mature form (from the activin betaB-myc construct) (human) (UniProt P09529); assay: as above
T2 sequence: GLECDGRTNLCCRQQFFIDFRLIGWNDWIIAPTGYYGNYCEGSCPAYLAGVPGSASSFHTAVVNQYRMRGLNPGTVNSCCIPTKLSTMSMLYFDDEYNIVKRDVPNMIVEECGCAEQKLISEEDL

binding [1]: binds
binding [2]: binds
binding [3]: binds
B1: C-terminal Flag-tagged FLRG (follistatin-3) (protein)
chain: MGSGNPAPGGVCWLQQGQEATCSLVLQTDVTRAECCASGNIDTAWSNLTHPGNKINLLGFLGLVHCLPCKDSCDGVECGPGKACRMLGGRPRCECAPDCSGLPARLQVCGSDGATYRDECELRAARCRGHPDLSVMYRGRCRKSCEHVVCPRPQSCVVDQTGSAHCVVCRAAPCPVPSSPGQELCGNNNVTYISSCHMRQATCFLGRSIGVRHAGSCAGTPEEPPGGESAEEEENFVDYKDDDDK

From patent US20030162715A1
